Measurements from article doi:10.1101/796524.
No constants are given. Whether binding was seen depends on the method and setting. Some results given as binding are weak or reduced against the parent protein; the word gives no strength.

Target: T1, XPF (human) (UniProt Q92889)
T1 sequence: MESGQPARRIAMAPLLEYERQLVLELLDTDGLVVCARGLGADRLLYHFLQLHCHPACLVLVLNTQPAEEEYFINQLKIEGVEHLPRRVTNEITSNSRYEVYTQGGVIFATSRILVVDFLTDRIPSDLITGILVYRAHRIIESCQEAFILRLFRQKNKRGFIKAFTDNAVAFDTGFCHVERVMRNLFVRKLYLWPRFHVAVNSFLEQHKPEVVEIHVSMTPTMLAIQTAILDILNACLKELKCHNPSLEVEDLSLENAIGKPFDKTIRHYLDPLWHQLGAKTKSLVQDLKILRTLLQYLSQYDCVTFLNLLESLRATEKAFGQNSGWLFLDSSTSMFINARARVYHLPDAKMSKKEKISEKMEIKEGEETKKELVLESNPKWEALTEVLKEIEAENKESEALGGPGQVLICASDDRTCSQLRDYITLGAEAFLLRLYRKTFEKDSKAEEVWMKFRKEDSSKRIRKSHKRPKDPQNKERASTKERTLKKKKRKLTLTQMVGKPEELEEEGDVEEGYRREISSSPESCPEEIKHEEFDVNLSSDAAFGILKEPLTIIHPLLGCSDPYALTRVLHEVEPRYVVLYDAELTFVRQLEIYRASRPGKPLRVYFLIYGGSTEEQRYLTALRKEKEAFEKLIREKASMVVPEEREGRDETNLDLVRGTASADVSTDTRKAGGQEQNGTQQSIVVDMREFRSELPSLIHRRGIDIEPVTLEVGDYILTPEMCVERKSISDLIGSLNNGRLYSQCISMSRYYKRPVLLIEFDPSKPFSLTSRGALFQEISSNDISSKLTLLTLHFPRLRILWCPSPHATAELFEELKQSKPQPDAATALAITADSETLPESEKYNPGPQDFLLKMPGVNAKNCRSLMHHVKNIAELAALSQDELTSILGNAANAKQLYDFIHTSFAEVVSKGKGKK
Test: co-purification

B1: SLX4 NTD (residues 1-758) (domain or fragment, UniProt Q8IY92-1 1-758)
chain: MKLSVNEAQLGFYLGSLSHLSACPGIDPRSSEDQPESLKTGQMMDESDEDFKELCASFFQRVKKHGIKEVSGERKTQKAASNGTQIRSKLKRTKQTATKTKTLQGPAEKKPPSGSQAPRTKKQRVTKWQASEPAHSVNGEGGVLASAPDPPVLRETAQNTQTGNQQEPSPNLSREKTRENVPNSDSQPPPSCLTTAVPSPSKPRTAQLVLQRMQQFKRADPERLRHASEECSLEAAREENVPKDPQEEMMAGNVYGLGPPAPESDAAVALTLQQEFARVGASAHDDSLEEKGLFFCQICQKNLSAMNVTRREQHVNRCLDEAEKTLRPSVPQIPECPICGKPFLTLKSRTSHLKQCAVKMEVGPQLLLQAVRLQTAQPEGSSSPPMFSFSDHSRGLKRRGPTSKKEPRKRRKVDEAPSEDLLVAMALSRSEMEPGAAVPALRLESAFSERIRPEAENKSRKKKPPVSPPLLLVQDSETTGRQIEDRVALLLSEEVELSSTPPLPASRILKEGWERAGQCPPPPERKQSFLWEGSALTGAWAMEDFYTARLVPPLVPQRPAQGLMQEPVPPLVPPEHSELSERRSPALHGTPTAGCGSRGPSPSASQREHQALQDLVDLAREGLSASPWPGSGGLAGSEGTAGLDVVPGGLPLTGFVVPSQDKHPDRGGRTLLSLGLLVADFGAMVNNPHLSDVQFQTDSGEVLYAHKFVLYARCPLLIQYVNNEGFSAVEDGVLTQRVLLGDVSTEAARTFLHYLYTA
With B1 the binding was “binds”.
